# Laboratory results as given in patent US8034940B2, “Modulators of glucocorticoid receptor, AP-1, and/or NF-κB activity and use thereof” (Bristol-Myers Squibb Company, priority 2006, dated 2011).
# The name of at least one read-out is uncertain.
# Test system: AP-1 induced transcriptional activity
# Experiment: Cellular Transrepressional Assay (AP-1 luciferase reporter, PMA-activated A549 cells)
# Type: cell-based
# Conditions: maximum inhibition
# Protocol: Cellular Transrepressional Assay
# To measure the ability of test molecules to inhibit AP-1 induced transcriptional activity we utilized an A549 cell which was stably transfected with a plasmid containing 7× AP-1 DNA binding sites (pAP-1-Luc plasmid, Stratagene Co. La Jolla, Calif.) followed by the gene for luciferase. Cells were activated with 10 ng/ml of […] (PMA) plus or minus test molecules for 7 hours. After 7 hours a luciferase reagent was added to measure luciferase enzymatic activity in the cell. After a 10 minute incubation of luciferase reagent with cells, luminescence was measured in a TopCount luminescence counter. Repression of AP-1 activity was calculated as the percentage decrease in the signal induced by PMA alone. Test molecules were analyzed in the concentration range from 0.1 nM to 40 μM. EC50s were determined by using standard curve fitting methods such as Excel fit (Microsoft Co.).
smiles,measurement,value
Cc1nnc(NC(=O)C(C)(C)C2c3ccc(-c4ccc(C(=O)N(C)C)cc4)nc3Oc3c(F)cccc32)s1 (stereo not shown) [Example 166],AP-1 Max % inh (Cellular Transrepression Assay),54.18%
